Many values rest on one well or one pass, so single values are uncertain.
Compound: [O-][N+](C(C1=C(C(O)=C2)NC(C(C=C3)=CC=C3Cl)C4C1C=CC4)=C2Cl)=O
Experiment: melting temperature shift (compound 7 minus DMSO); higher = compound stabilises the protein
Conditions: 10 µM
Description: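 Thermal proteome profiling (TMT mass spectrometry) in intact DAOY medulloblastoma cells or DAOY lysates treated with 10 µM compound 7 or DMSO, heated at 10 temperatures from 40.5 to 73.8 °C for 3 min. Melting curves were fitted with the Bioconductor TPP package, and the melting point difference between compound and vehicle is reported per protein (single curve per condition).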

By UniProt entry, the sequences of proteins in these tests, tags left out. Where a name states a change or a piece, a line headed by the entry shows the natural chain unless it says otherwise.
UniProt Q5EBL4: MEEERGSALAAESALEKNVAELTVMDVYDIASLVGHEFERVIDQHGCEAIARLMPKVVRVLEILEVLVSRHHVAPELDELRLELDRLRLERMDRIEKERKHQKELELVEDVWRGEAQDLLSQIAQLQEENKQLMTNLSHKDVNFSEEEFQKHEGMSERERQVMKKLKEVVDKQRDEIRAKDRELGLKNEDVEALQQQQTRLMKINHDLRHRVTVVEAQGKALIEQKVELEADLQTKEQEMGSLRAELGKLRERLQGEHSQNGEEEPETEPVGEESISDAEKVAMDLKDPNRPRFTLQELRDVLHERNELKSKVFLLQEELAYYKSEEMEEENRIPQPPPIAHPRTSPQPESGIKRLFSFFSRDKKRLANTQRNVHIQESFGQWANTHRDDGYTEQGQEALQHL
UniProt A8MTL0: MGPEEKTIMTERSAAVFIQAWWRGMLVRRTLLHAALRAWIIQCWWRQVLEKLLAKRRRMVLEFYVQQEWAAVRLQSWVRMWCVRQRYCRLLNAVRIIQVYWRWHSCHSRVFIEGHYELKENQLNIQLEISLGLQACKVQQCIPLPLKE
UniProt P18615, whole entry: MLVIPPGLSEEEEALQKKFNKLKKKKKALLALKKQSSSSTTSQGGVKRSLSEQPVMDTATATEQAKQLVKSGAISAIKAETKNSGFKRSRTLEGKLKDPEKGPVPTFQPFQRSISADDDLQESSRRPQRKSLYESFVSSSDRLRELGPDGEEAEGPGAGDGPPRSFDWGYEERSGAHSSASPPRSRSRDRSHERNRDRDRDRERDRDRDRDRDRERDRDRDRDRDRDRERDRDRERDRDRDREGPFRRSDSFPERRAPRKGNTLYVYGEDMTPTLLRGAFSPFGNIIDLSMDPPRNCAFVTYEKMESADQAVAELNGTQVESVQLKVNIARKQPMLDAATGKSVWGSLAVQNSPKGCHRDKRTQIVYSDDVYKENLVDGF
UniProt P35611: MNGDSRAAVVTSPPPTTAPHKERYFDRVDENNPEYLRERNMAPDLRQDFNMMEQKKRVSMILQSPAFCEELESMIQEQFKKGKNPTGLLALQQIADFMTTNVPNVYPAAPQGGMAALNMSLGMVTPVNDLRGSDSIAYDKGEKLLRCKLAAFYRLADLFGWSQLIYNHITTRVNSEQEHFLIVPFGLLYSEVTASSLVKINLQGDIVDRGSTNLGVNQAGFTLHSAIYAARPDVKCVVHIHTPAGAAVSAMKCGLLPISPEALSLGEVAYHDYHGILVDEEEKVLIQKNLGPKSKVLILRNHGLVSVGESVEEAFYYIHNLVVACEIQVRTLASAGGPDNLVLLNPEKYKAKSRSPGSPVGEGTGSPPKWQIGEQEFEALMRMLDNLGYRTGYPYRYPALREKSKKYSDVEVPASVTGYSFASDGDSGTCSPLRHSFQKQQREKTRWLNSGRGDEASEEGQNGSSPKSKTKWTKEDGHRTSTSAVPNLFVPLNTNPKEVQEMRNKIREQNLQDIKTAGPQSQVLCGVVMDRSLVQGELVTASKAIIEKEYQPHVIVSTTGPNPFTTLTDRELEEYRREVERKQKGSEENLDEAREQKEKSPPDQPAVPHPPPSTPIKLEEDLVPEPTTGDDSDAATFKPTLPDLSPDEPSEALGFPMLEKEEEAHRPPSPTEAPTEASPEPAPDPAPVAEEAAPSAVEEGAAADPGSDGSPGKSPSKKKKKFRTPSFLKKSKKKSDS
UniProt P62993, whole entry, looked up: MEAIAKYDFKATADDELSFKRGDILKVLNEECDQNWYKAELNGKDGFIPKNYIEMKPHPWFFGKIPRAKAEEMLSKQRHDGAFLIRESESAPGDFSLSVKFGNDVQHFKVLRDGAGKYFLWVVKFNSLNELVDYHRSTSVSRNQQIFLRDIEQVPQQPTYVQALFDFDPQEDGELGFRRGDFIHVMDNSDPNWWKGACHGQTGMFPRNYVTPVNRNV
UniProt P08621, whole entry: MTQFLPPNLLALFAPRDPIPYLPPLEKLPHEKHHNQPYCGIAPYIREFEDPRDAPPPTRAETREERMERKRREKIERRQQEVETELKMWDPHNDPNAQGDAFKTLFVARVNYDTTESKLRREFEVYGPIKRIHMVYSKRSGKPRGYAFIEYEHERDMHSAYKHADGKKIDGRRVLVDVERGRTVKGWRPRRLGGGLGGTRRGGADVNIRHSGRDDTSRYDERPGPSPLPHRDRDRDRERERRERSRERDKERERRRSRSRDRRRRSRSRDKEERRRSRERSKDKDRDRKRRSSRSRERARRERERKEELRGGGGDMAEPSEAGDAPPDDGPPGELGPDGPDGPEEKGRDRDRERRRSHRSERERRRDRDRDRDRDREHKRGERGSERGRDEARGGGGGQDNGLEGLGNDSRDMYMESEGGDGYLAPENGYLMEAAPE
UniProt P00813: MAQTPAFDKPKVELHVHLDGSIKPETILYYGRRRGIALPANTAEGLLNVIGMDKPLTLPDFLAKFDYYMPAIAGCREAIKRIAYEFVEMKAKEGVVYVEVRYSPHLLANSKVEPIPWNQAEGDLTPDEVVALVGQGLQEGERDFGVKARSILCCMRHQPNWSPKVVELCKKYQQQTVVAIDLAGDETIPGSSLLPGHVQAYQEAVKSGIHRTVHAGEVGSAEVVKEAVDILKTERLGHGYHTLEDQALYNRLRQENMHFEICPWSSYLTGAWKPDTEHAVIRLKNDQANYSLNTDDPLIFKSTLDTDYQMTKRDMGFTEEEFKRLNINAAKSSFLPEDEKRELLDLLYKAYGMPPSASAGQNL
UniProt Q9Y2X8: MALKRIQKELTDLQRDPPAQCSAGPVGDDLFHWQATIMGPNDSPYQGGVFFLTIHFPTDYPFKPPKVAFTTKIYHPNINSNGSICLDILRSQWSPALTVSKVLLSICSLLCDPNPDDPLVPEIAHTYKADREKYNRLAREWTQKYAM
UniProt O95260: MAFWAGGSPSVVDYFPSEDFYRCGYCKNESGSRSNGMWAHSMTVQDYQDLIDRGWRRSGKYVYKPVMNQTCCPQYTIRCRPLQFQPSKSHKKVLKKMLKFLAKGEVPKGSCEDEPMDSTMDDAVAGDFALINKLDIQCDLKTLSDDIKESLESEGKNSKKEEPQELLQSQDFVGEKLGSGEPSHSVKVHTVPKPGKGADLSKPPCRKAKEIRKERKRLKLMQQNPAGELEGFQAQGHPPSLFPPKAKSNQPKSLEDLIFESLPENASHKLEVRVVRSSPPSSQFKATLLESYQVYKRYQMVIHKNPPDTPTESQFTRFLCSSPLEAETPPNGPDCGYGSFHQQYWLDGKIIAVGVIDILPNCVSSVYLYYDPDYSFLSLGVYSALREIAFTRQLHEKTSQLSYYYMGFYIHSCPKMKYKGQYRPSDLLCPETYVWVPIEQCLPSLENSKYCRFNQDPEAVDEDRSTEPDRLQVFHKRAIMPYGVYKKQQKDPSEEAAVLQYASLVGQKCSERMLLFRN
UniProt P18850: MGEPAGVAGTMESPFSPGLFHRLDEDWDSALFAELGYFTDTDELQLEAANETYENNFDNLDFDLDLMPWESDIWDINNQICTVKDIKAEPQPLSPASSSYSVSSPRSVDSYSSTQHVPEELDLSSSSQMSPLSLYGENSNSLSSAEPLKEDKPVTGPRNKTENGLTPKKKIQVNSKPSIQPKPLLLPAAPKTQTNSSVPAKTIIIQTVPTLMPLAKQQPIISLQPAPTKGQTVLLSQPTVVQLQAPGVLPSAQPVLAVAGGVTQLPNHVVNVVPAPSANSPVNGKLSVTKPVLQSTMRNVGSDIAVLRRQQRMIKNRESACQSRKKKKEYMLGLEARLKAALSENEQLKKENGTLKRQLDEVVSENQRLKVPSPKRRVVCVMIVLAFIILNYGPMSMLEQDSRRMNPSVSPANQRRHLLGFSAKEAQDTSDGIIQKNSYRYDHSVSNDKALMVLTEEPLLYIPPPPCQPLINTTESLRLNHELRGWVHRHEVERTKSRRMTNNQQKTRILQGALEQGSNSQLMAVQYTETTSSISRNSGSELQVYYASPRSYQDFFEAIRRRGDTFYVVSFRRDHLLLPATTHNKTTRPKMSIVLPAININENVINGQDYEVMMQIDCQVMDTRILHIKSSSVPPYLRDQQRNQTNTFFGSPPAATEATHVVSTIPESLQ
UniProt Q8WVK2: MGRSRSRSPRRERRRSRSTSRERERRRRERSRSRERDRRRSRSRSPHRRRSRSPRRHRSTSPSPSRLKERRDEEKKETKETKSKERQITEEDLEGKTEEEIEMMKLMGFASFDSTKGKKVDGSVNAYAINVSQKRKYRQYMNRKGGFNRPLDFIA
UniProt Q9UBF2: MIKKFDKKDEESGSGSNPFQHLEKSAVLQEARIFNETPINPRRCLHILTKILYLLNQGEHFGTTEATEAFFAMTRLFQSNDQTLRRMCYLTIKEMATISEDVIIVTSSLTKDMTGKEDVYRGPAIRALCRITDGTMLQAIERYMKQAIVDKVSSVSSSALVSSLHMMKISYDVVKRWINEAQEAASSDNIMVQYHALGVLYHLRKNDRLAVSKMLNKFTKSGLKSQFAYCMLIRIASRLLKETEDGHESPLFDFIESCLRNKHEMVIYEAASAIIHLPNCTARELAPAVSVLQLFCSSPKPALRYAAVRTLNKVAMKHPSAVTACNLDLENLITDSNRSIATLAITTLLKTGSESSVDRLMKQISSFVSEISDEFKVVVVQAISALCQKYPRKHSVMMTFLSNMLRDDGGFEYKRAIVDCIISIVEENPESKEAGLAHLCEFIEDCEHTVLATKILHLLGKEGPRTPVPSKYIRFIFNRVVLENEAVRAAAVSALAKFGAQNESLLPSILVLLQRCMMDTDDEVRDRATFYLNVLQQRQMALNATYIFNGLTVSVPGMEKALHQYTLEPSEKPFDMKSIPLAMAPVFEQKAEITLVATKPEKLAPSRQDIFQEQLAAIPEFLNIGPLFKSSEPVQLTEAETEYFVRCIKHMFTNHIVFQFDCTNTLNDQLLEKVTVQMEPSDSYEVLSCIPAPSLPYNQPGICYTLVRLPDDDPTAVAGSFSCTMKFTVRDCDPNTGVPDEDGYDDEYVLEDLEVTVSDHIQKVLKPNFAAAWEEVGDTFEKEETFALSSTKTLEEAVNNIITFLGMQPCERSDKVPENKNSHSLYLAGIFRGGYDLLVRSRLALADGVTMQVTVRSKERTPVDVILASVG
UniProt Q13206, whole entry: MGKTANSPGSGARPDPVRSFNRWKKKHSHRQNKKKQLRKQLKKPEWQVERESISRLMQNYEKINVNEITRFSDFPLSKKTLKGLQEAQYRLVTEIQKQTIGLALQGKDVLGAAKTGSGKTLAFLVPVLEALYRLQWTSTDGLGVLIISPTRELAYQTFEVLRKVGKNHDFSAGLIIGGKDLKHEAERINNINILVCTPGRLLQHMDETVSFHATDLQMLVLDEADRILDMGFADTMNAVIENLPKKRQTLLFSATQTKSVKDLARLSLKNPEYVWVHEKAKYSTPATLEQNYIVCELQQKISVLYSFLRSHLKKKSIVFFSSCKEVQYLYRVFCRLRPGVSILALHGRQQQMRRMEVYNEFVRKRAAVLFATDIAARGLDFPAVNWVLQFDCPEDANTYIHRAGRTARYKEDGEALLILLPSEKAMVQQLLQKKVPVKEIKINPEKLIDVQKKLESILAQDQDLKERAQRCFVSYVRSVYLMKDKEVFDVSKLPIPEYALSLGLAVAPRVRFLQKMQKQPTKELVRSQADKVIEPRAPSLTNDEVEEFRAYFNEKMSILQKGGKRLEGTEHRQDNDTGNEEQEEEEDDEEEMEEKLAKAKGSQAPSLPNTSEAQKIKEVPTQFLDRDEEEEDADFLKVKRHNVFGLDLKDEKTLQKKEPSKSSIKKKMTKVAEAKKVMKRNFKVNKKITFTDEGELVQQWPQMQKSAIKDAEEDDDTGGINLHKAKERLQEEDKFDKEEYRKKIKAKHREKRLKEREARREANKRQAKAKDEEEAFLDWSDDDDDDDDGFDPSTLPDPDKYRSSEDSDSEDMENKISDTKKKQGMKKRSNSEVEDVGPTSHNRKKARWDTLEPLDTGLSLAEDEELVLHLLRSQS
UniProt Q9H814, whole entry: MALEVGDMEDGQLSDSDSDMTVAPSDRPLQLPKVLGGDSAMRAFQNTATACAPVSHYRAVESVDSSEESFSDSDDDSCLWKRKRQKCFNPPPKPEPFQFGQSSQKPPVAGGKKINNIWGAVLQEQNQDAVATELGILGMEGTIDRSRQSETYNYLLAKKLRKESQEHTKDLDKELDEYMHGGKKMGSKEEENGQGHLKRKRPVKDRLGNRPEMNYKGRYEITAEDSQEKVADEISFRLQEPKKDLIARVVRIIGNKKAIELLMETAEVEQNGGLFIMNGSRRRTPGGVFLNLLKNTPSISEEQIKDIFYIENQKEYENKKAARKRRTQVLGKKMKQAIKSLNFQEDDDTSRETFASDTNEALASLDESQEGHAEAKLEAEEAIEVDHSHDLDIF
UniProt Q9H0N0: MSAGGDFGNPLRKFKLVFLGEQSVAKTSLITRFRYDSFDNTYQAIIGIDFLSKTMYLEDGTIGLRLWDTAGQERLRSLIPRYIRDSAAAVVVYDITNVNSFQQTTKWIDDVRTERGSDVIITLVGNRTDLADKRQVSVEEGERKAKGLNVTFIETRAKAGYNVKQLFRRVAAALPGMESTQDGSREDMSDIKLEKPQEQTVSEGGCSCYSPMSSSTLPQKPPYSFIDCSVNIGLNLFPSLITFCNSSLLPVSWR

[1] = system: DAOY cell lysate, treatment time: 20 min, 4 °C
[2] = system: intact DAOY cells, treatment time: 90 min, 37 °C

| Target | melting temperature shift [1] | melting temperature shift [2] |
| --- | --- | --- |
| FIGNL1 (UniProt Q6PIW4) | -0.95 °C | -1.96 °C |
| SPTAN1 (UniProt Q13813) | -0.0965 °C | 0.749 °C |
| RILPL1 (UniProt Q5EBL4) | -1.63 °C | – |
| UniProt Q9Y5W7 | -0.78 °C | 0.862 °C |
| VPS13A (UniProt Q96RL7) | 0.0619 °C | -0.347 °C |
| ABI2 (UniProt Q9NYB9) | -0.701 °C | 1.24 °C |
| UniProt P62341 | -1.46 °C | – |
| HLTF (UniProt Q14527) | -0.913 °C | -0.5 °C |
| UniProt A8MTL0 | 1.58 °C | – |
| HSPA9 (UniProt P38646) | 0.637 °C | -1.82 °C |
| NELFE (UniProt P18615) | -0.546 °C | 1.69 °C |
| ADD1 (UniProt P35611) | 0.527 °C | 0.104 °C |
| UniProt O60673 | -2.42 °C | – |
| BSG (UniProt P35613) | 4.56 °C | – |
| TMEM126B (UniProt Q8IUX1) | -0.132 °C | -3.61 °C |
| ZZEF1 (UniProt O43149) | 1.14 °C | -0.436 °C |
| UniProt Q9HAA7 | 1.19 °C | -1.87 °C |
| CIT (UniProt O14578) | -0.389 °C | 0.0352 °C |
| UBA1 (UniProt P22314) | -0.146 °C | 0.519 °C |
| DPY19L1 (UniProt Q2PZI1) | -1.07 °C | -3.24 °C |
| PTPN9 (UniProt P43378) | -2.16 °C | -0.841 °C |
| PKM (UniProt P14618) | -0.181 °C | -0.542 °C |

| Target | melting temperature shift [1] | melting temperature shift [2] |
| --- | --- | --- |
| A0AVI2 | – | 0.656 °C |
| MTPN (UniProt P58546) | -0.226 °C | -0.153 °C |
| SMNDC1 (UniProt O75940) | -3.43 °C | 0.869 °C |
| GRB2 (UniProt P62993) | -0.879 °C | -0.206 °C |
| NCAPH2 (UniProt Q6IBW4) | 1.78 °C | -1.5 °C |
| GNL3 (UniProt Q9BVP2) | 0.331 °C | 4.8 °C |
| SNRNP70 (UniProt P08621) | 0.86 °C | -0.414 °C |
| PYCR2 (UniProt Q96C36) | 2.11 °C | 0.318 °C |
| HELLS (UniProt Q9NRZ9) | 0.315 °C | – |
| SMG1 (UniProt Q96Q15) | -0.862 °C | 0.222 °C |
| SH3BP5L (UniProt Q7L8J4) | 1.12 °C | -1.24 °C |
| PICALM (UniProt Q13492) | -0.657 °C | -0.422 °C |
| ADAT2 (UniProt Q7Z6V5) | 0.119 °C | -2.89 °C |
| UniProt Q96C12 | – | -2.21 °C |
| LGALS3 (UniProt P17931) | -0.528 °C | -0.165 °C |
| GGCT (UniProt O75223) | -1.09 °C | 1.97 °C |
| ACSS2 (UniProt Q9NR19) | 0.512 °C | 0.536 °C |
| ADA (UniProt P00813) | -1.68 °C | -0.481 °C |
| NCOA3 (UniProt Q9Y6Q9) | -1.09 °C | – |
| UniProt Q9Y2X8 | 1.05 °C | -0.00572 °C |
| A0A087WTH1, A0A087WTH1 | -0.768 °C | – |
| HYOU1 (UniProt Q9Y4L1) | 1.11 °C | 0.567 °C |

| Target | melting temperature shift [1] | melting temperature shift [2] |
| --- | --- | --- |
| UniProt Q9NZW5 | 1.29 °C | -0.422 °C |
| CAMLG (UniProt P49069) | 0.561 °C | -0.792 °C |
| ATE1 (UniProt O95260) | -0.196 °C | 1.23 °C |
| SUMO1 (UniProt P63165) | 2.33 °C | 3.43 °C |
| TRMT2A (UniProt Q8IZ69) | -1.44 °C | -2.58 °C |
| POLR2L (UniProt P62875) | -0.676 °C | 3.21 °C |
| UniProt Q5SRH9 | – | -0.8 °C |
| SNW1 (UniProt Q13573) | -0.265 °C | 0.124 °C |
| ATF6 (UniProt P18850) | – | -0.438 °C |
| UniProt Q8IVL6 | 1.27 °C | 0.171 °C |
| UniProt Q96JD6 | – | 0.316 °C |
| UniProt Q96L21 | – | -0.566 °C |
| MYLK (UniProt Q15746) | -0.68 °C | 0.783 °C |
| PSME2 (UniProt Q9UL46) | -1.2 °C | -0.248 °C |
| TMEM205 (UniProt Q6UW68) | 1.2 °C | 3.07 °C |
| ACYP1 (UniProt P07311) | -0.0323 °C | -0.686 °C |
| SNRNP27 (UniProt Q8WVK2) | 1.48 °C | – |
| KLHDC4 (UniProt Q8TBB5) | -0.249 °C | – |
| ALG5 (UniProt Q9Y673) | 0.695 °C | -1.03 °C |
| ECHDC1 (UniProt Q9NTX5) | 0.387 °C | 1.31 °C |
| UniProt Q69YL0 | 1.14 °C | – |
| ACAT2 (UniProt Q9BWD1) | 0.124 °C | 0.834 °C |

A section of the results above:

| Target | melting temperature shift [1] | melting temperature shift [2] |
| --- | --- | --- |
| RILPL1 (UniProt Q5EBL4) | -1.63 °C | – |
| UniProt Q9Y5W7 | -0.78 °C | 0.862 °C |
| VPS13A (UniProt Q96RL7) | 0.0619 °C | -0.347 °C |
| ABI2 (UniProt Q9NYB9) | -0.701 °C | 1.24 °C |
| UniProt P62341 | -1.46 °C | – |
| HLTF (UniProt Q14527) | -0.913 °C | -0.5 °C |
| UniProt A8MTL0 | 1.58 °C | – |
| HSPA9 (UniProt P38646) | 0.637 °C | -1.82 °C |
| NELFE (UniProt P18615) | -0.546 °C | 1.69 °C |
| ADD1 (UniProt P35611) | 0.527 °C | 0.104 °C |
| UniProt O60673 | -2.42 °C | – |
| BSG (UniProt P35613) | 4.56 °C | – |
| TMEM126B (UniProt Q8IUX1) | -0.132 °C | -3.61 °C |
| ZZEF1 (UniProt O43149) | 1.14 °C | -0.436 °C |
| UniProt Q9HAA7 | 1.19 °C | -1.87 °C |
| CIT (UniProt O14578) | -0.389 °C | 0.0352 °C |
| UBA1 (UniProt P22314) | -0.146 °C | 0.519 °C |
| DPY19L1 (UniProt Q2PZI1) | -1.07 °C | -3.24 °C |
| PTPN9 (UniProt P43378) | -2.16 °C | -0.841 °C |
| PKM (UniProt P14618) | -0.181 °C | -0.542 °C |
| A0AVI2 | – | 0.656 °C |
| MTPN (UniProt P58546) | -0.226 °C | -0.153 °C |
| SMNDC1 (UniProt O75940) | -3.43 °C | 0.869 °C |
| GRB2 (UniProt P62993) | -0.879 °C | -0.206 °C |
| NCAPH2 (UniProt Q6IBW4) | 1.78 °C | -1.5 °C |
| GNL3 (UniProt Q9BVP2) | 0.331 °C | 4.8 °C |
| SNRNP70 (UniProt P08621) | 0.86 °C | -0.414 °C |

Remaining list, next part:

| Target | melting temperature shift [1] | melting temperature shift [2] |
| --- | --- | --- |
| STAT6 (UniProt P42226) | -0.346 °C | -0.511 °C |
| YKT6 (UniProt O15498) | -1.66 °C | 0.0855 °C |
| ERLIN1 (UniProt O75477) | 2.41 °C | -0.00282 °C |
| TOX4 (UniProt O94842) | -0.113 °C | -1.56 °C |
| DDRGK1 (UniProt Q96HY6) | 1.99 °C | 0.83 °C |
| NIP7 (UniProt Q9Y221) | -0.38 °C | 2.65 °C |
| COPG2 (UniProt Q9UBF2) | -0.771 °C | 0.0383 °C |
| PSMB7 (UniProt Q99436) | -0.167 °C | 0.213 °C |
| UniProt Q13206 | 0.474 °C | – |
| HLCS (UniProt P50747) | -0.255 °C | 0.0907 °C |
| UniProt Q8NC54 | 0.372 °C | – |
| PHAX (UniProt Q9H814) | -0.4 °C | -1.28 °C |
| IFIT1 (UniProt P09914) | 0.598 °C | – |
| BUB1 (UniProt O43683) | -0.256 °C | 1.66 °C |
| SNCA (UniProt P37840) | -0.969 °C | – |
| PAFAH1B1 (UniProt P43034) | -0.72 °C | 0.000612 °C |
| UniProt Q9UM01 | – | -1.8 °C |
| DUS2 (UniProt Q9NX74) | -0.522 °C | -0.97 °C |
| PES1 (UniProt O00541) | 1.34 °C | 0.869 °C |
| TST (UniProt Q16762) | -0.744 °C | 0.569 °C |
| NFIC (UniProt P08651) | 1.01 °C | 2.55 °C |
| UniProt Q9H0N0 | – | -2.25 °C |
